Measurements taken from PubChem BioAssay (Tox21).
This list was built around the results that the source calls inconclusive (neither active nor inactive); the mix of calls is not that of the screen. For part of these data: Potencies of inconclusive entries are doubtful fits and often do not repeat. The source made the active and inactive calls. Calls follow the shape of the dose curve; as a rule, active = well fitted curve in the direction sought with a large enough effect in the repeat runs; inconclusive = weak or mixed curves; inactive = no such curve, though single readings can be large; an effect the other way counts as inactive or inconclusive.

Sequences of proteins named here, by UniProt entry; tags and fusion partners are left off. A change or cut given only in a name is not applied to a line headed by its entry.
UniProt O75469: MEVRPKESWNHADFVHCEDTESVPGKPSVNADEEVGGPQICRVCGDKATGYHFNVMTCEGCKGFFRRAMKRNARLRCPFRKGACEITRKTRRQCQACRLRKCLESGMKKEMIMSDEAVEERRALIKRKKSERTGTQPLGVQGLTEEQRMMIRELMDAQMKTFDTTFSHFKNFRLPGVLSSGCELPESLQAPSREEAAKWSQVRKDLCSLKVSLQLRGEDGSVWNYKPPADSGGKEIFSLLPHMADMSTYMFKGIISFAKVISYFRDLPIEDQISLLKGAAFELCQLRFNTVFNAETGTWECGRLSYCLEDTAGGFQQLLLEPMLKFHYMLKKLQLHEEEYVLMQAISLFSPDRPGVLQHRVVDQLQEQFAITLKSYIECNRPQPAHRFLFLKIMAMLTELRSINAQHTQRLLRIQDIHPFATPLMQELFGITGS
UniProt Q12809: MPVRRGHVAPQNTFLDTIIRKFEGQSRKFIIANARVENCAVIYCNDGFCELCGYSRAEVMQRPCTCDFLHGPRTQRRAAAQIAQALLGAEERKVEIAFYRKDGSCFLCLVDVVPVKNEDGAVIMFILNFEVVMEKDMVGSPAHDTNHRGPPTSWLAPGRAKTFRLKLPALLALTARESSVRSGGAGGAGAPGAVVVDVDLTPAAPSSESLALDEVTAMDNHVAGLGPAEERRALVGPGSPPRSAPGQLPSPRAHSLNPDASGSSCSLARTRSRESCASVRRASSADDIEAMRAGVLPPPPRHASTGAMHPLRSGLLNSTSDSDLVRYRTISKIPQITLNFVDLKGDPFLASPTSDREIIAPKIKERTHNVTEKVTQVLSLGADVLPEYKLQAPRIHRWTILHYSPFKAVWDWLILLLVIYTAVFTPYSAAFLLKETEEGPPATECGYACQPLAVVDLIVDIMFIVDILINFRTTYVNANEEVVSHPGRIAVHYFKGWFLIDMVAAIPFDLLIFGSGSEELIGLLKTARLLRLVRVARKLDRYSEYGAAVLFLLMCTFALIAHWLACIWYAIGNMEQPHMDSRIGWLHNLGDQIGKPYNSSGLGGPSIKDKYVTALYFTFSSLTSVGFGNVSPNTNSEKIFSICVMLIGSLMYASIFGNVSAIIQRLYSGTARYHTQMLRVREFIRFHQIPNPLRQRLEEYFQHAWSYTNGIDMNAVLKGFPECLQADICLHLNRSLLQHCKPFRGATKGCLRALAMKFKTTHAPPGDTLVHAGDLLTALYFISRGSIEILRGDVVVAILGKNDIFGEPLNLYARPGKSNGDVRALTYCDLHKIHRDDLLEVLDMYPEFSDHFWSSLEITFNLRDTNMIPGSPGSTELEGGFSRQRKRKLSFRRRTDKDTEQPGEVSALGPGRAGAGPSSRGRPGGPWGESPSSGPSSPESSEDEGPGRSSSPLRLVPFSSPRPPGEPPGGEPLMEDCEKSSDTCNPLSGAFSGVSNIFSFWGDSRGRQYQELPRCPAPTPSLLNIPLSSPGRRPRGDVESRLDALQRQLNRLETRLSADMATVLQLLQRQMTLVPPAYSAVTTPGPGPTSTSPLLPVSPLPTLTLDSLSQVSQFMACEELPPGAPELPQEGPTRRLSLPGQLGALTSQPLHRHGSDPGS
UniProt P11712, whole entry, looked up: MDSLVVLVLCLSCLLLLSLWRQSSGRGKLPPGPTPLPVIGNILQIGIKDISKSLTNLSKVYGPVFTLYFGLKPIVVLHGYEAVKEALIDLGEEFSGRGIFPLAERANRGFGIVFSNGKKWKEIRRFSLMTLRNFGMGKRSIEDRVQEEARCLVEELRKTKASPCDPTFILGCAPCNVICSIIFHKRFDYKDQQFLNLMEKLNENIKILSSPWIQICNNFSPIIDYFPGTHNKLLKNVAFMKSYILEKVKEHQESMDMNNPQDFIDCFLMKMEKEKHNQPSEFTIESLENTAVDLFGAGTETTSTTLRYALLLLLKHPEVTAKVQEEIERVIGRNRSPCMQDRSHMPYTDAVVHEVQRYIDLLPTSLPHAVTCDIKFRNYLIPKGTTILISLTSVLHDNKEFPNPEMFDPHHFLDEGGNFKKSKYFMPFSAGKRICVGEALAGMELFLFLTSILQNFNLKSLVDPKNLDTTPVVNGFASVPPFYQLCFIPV
UniProt P05177, whole entry, looked up: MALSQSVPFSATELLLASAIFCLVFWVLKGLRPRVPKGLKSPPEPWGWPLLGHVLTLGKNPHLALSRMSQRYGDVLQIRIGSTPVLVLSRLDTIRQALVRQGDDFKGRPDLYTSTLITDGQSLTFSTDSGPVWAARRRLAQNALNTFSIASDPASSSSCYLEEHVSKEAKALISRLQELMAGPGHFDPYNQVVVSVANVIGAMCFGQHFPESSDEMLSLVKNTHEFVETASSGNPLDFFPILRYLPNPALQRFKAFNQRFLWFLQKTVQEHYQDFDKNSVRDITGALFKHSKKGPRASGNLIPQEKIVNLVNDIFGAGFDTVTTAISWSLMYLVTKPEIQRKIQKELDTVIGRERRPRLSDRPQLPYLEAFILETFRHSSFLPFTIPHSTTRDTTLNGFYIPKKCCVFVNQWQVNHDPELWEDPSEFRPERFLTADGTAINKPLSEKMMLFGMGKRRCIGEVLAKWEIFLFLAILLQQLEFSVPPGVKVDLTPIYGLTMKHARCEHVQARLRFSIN
UniProt P08684, whole entry, looked up: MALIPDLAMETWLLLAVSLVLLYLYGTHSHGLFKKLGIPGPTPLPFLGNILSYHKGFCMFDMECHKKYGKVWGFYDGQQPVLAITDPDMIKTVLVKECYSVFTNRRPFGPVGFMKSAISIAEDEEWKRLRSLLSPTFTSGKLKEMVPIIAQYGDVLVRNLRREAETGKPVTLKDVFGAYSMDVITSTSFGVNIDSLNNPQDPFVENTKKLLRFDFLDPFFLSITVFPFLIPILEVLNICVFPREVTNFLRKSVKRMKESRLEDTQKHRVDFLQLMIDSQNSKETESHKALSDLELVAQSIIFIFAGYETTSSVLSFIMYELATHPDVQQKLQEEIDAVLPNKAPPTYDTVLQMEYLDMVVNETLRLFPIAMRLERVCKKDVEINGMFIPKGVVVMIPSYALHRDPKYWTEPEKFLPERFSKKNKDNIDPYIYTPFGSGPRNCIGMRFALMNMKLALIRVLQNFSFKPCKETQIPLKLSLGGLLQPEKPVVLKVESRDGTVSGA
UniProt Q9R1A7: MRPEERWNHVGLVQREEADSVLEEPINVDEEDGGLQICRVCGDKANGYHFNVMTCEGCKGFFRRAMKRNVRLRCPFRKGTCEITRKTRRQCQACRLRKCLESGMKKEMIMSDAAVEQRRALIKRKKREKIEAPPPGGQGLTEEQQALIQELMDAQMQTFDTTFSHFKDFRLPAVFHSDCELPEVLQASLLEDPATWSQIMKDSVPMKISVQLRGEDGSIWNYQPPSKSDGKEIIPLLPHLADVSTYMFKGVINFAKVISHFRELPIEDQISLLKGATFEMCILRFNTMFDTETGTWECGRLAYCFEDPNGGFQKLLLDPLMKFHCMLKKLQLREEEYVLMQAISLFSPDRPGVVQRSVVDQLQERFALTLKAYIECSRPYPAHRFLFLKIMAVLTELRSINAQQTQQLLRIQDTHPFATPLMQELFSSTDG

Columns and labels:
[1] = target: Nuclear receptor subfamily 1 group I member 2 (Homo sapiens) (UniProt O75469); assay: Human pregnane X receptor (PXR) small molecule agonists, qHTS assay (AID 1346982); also: nearly all actives have a fitted effect of over 35% in size; also: potency is read from the fitted curve at half-maximal effect
How it was run: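 Luminescence (ONE-Glo, 30 min RT) after 24 hr compound exposure of PXR-Luc HepG2 cells; cells rested 5 hr post-plating in 5% charcoal-stripped FBS medium.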

[2] = target: Voltage-gated inwardly rectifying potassium channel KCNH2 (Homo sapiens) (UniProt Q12809); assay: Human Ether-a-go-go-Related Gene (hERG) channel small molecule antagonists: fluorescence cell-based qHTS assay (AID 1671200);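 also: hERG-expressing U2OS cells given a thallium stimulus after FluxOR II dye loading; series mostly up to about 77 µM; nearly all actives have a fitted effect of over 50% in size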
How it was run: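 Fluorescence at 540 nm emission (480 nm excitation) was recorded kinetically for 2 min at 1-second intervals once the thallium-containing stimulus reached cells previously loaded with FluxOR II dye.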

[3] = target: Cytochrome P450 2C9 (Homo sapiens) (UniProt P11712); assay: Cytochrome P450 Family 2 Subfamily C Member 9 (CYP2C9) small molecule antagonists: luciferase reporter qHTS assay (AID 1671198); also: nearly all actives have a fitted effect of over 50% in size; also: potency is read from the fitted curve at half-maximal effect
How it was run: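 P450-Glo proluciferin substrate with CYP2C9 enzyme; 10 min RT preincubation, then NADPH regeneration 1 h at 37C; luciferin detection reagent 20 min RT, luminescence in relative luminescence units.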

[4] = target: Cytochrome P450 1A2 (Homo sapiens) (UniProt P05177); assay: Cytochrome P450 Family 1 Subfamily A Member 2 (CYP1A2) small molecule antagonists: luciferase reporter qHTS assay (AID 1671199); also: nearly all actives have a fitted effect of over 50% in size; also: potency is read from the fitted curve at half-maximal effect
How it was run: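 Signal from luciferin formed by CYP1A2 from a proluciferin substrate is read as luminescence, expressed in relative luminescence units. Compounds sit with enzyme 10 min, NADPH-driven reaction runs 1 h, all at room temperature.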

[5] = target: Cytochrome P450 3A4 (Homo sapiens) (UniProt P08684); assay: Cytochrome P450 Family 3 Subfamily A Member 4 (CYP3A4) small molecule antagonists: luciferase reporter qHTS assay (AID 1671201); also: potency is read from the fitted curve at half-maximal effect; nearly all actives have a fitted effect of over 50% in size
How it was run: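 qHTS, 1536-well. CYP3A4 + proluciferin substrate, cpd 10 min RT → NADPH regen 1 h RT → detection reagent 20 min → luminescence (RLU). Ketoconazole positive control.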

[6] = target: Nuclear receptor subfamily 1 group I member 2 (Rattus norvegicus) (UniProt Q9R1A7); assay: Rat pregnane X receptor (rPXR) activation by small molecules, qHTS assay (AID 1346983); details: rPXR luciferase reporter cells, One-Glo luminescence, 24 h; max activation: stronger effect = higher value; also: potency is read from the fitted curve at half-maximal effect; nearly all actives have a fitted effect of over 20% in size
How it was run: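 Cell-based rPXR activation assay: rPXR cells, 2,000 per well, rested 5hr at 37 C, then exposed to compounds in DMSO for 24 hr at 37 C. Luciferase activity read by One-Glo luminescence after 30 min at room temperature.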

With O=C(O)c1cc(=O)c2c(OCC(O)COc3cccc4oc(C(=O)O)cc(=O)c34)cccc2o1 the Potency [1] was inconclusive: 61.1 µM [activator, partial curve, poor fit] and the Potency [2] was “inactive”.
In the case of CNC(=O)N(c1ccccc1)c1ccccc1, the Potency [1] was active: 48.8 µM, the Potency [3] was “inactive” and the Potency [2] was “inactive”.
C1=C\CC/C=C\CC/C=C\CC/1 was tested, and the Potency [1] was “inactive”, the Potency [3] was inconclusive: 79.6 µM [inhibitor, partial curve, poor fit] and the Potency [4] was inconclusive: 71 µM [inhibitor, partial curve].
In the case of C(/C=C/C=C/Nc1ccccc1)=Nc1ccccc1, the Potency [1] was inconclusive: 54.5 µM [activator, partial curve], the Potency [3] was inconclusive: 71 µM [inhibitor, partial curve, poor fit] and the Potency [4] was inconclusive: 44.8 µM [inhibitor, partial curve]. For the same compound, the Potency [5] was inconclusive: 71 µM [inhibitor, partial curve, poor fit].
For CC(C)(N)C#N, the Potency [1] was “inactive” and the Potency [4] was “inactive”.
For NS(=O)(=O)c1cc(-c2nn[nH]n2)c(NCc2cccs2)cc1Cl, the Potency [6] was inconclusive: 14.1 µM [activator, single point].
With Cn1c(=O)c2[nH]cnc2n(C)c1=O the Potency [1] was inconclusive: 78 µM [activator, partial curve, poor fit] and the Potency [4] was inconclusive: 72 µM [inhibitor].
In the case of F[Si-2](F)(F)(F)(F)F, the Potency [1] was inconclusive: 27.3 µM [activator, single point] and the Potency [4] was “inactive”.
For COC(=O)/C=C(\C)CCC=C(C)C, the Potency [1] was active: 61.1 µM and the Potency [4] was inconclusive: 56.4 µM [inhibitor, partial curve].
